Data as given in US20200291350A1, “HEPATOCYTE CONSTRUCT AND METHOD FOR PRODUCING THE SAME” (NIHON KOHDEN CORPORATION, priority 2019, published 2020).
At least one compound was matched to its structure with a doubt left.

Key:
[1] = system: mouse hepatocyte/NHDF cell sheet; test: Effect of added agent on ballooning of mouse hepatocytes in PMH/NHDF hepatocyte construct (H&E staining); format: cell-based; settings: obeticholic acid 10 μM added on day 1; mouse hepatocyte/NHDF cell sheet day 8
Procedure: (§1) At pre-determined time points, cell sheet samples were washed by pre-warmed PBS twice and fixed in 4% paraformaldehyde at room temperature for 1 h. Fixed cell sheets were embedded in paraffin, sliced into 4 μm sections and deparaffinized for standard histological staining with hematoxylin and eosin (HE). For immunostainings of cytokeratin 8+18 (CK8/18), sections were treated with Dako proteinase K (Agilent, Santa Clara, Calif., US) for antigen retrieval, incubated in Dako REAL peroxidase-blocking solution (Agilent) to quench endogenous peroxidase activity, and then blocked in Blocking One Histo (Nacalai Tesque, Kyoto, Japan). After that, the sections were incubated with mouse anti-human CK8/18 at 25-fold dilution (Abeam, Cambridge, UK) followed by incubation with horseradish […] donkey anti-mouse IgG H&L (Abeam). The sections were dyed with Dako Liquid DAB+Substrate Chromogen System (Agilent) and the nuclei were stained with hematoxylin. Finally, the sections were mounted, dried and imaged with a light microscope (Nikon).
Primary mouse hepatocytes (PMH) were obtained in the same manner as in Example 3.
As NHDFs, NHDFs used in Example 1 were used.
Primary mouse hepatocytes (PMH)/NHDF co-culture and production of a hepatocyte construct were performed in the same manner as in Example 1 except that PMHs were used in place of the above-mentioned PHHs. […]

PHH/NHDF cell sheet = test: Effect of added agent on ballooning of human hepatocytes in PHH/NHDF hepatocyte construct (H&E staining); format: cell-based; settings: obeticholic acid 10 μM added on day 1; PHH/NHDF cell sheet on day 11 or day 4
Procedure: as §1
As PHHs and NHDFs, PHHs and NHDFs used in Example 1 were used.
Primary human hepatocytes (PHH)/NHDF co-culture and production of a hepatocyte construct were performed in the same manner as in Example 1 described above. […]

`CC[C@H]1[C@@H](O)[C@@H]2[C@H](CC[C@]3(C)[C@@H]([C@H](C)CCC(=O)O)CC[C@@H]23)[C@@]2(C)CC[C@@H](O)C[C@@H]12` [obeticholic acid] was tested, and the hepatocellular ballooning [1] was “suppressed” and the hepatocellular ballooning (PHH/NHDF cell sheet) was “suppressed”.
